This passage reports cell number change and AC50 results from PubChem BioAssay AID2685 (National Center for Advancing Translational Sciences (NCATS), 2010).

The list shows a part of the results. The main result of the screen is listed elsewhere. These columns were measured beside it and carry no call. Compounds called inactive in the main read-out are mostly missing here. The note in brackets gives the kind of curve behind each potency; many fits are weak.

The assay can be described thus: qHTS Assay for Lipid Storage Modulators in Drosophila S3 Cells.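 For cell number change: cells counted by Cell Tracker Red CMTPX staining in the red channel.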 Particulars: BODIPY lipid droplet fluorescence, 18-24 h; for cell number change: measured here: cell count max response, cells fed with added oleic acid. The gist of the method:
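Drosophila S3 cells got compounds at several concentrations plus oleic acid (400 uM solution). Laser-scanning cytometry with 488 nm excitation read lipid droplets at 500-530 nm and cells at 575-640 nm. Percent activity was relative to 20 uM Triacsin C.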
For orientation: In qHTS, concentration-response curves come from the screen itself.

Setting [1] is: measured here: cell number channel AC50, cells fed with added oleic acid.
Where [2] appears, read: measured here: lipid fluorescence (Fed channel) AC50, cells fed with added oleic acid.

The term AC50 denotes the concentration giving half of the maximal activity seen. A high value points to weaker potency. As to `COc1ccc(Cc2nc3ccc(C(=O)N4CCCN(C=O)CC4)cc3o2)cc1`, the cell number change came to 90.4%. In addition, the AC50 under setting [1] is 25.9 µM [rising, single point]. Moreover, the AC50 under setting [2] was 29.1 µM [rising, single point].

On to `CC(=O)Nc1ccc(NC(=O)CSc2nc3ccccc3nc2N2CCCCC2)cc1`, for which the cell number change was 3.33%.

As to `COC(=O)C1=C(C)NC(=O)NC1c1cc(Cl)ccc1OC` (configuration not stated), the AC50 under setting [1] was 0.58 µM [falling, single point].

As for `Cc1oc(CSCCSCc2cc(C(=O)O)c(C)o2)cc1C(=O)O`, the cell number change is -3.65%.

As to `CC1=C(C(=O)OCc2ccccc2)C(c2ccsc2)NC(=O)N1C` (configuration not stated), the cell number change is 110%. In addition, the AC50 under setting [1] is 25.9 µM [rising, partial curve].

Turning to `O=C(NCCCO)c1c(O)c2cccc3c2n(c1=O)CCC3`, the cell number change was determined as 2.84%.

In the case of `CC1Oc2ccccc2N(CC(=O)NC2CCCCC2)C1=O` (configuration not stated), the cell number change stood at 8.47%.

Consider `CNC(=O)CCC(=O)Nc1ccc(C(=O)OC)cc1`, for which the cell number change is 41.3%. Under setting [1], the AC50 was 20.6 µM [rising, single point]. In addition, the AC50 under setting [2] was 13 µM [rising, partial curve].

As to `COC(=O)NCC(c1ccc2c(c1)OCO2)N1CCN(c2ccc(OC)cc2)CC1` (configuration not stated), the cell number change turned out to be 7.03%.

For `Cc1ccc(C(=O)Nc2nnc(CC(=O)N/N=C/c3ccncc3)s2)cc1`, the cell number change was 7.06%. The AC50 under setting [2] was 6.51 µM [falling, single point].

With `Cc1nnc(N2C(=O)c3cccc4c([N+](=O)[O-])ccc(c34)C2=O)s1`, the cell number change is -20.9%. For the same molecule, the AC50 under setting [1] was 3.26 µM [falling, partial curve, poor fit]. Also, the AC50 under setting [2] is 0.58 µM [rising, single point].

`CCC(C)(C)NC(=O)C(c1ccc(F)cc1)N(Cc1ccccc1)C(=O)c1cnccn1` (configuration not stated): under setting [2], the AC50 was 23.1 µM [rising, single point].

For `O=C(Cn1nc(Cc2cccnc2)c2ccccc2c1=O)N1CCN(C(=O)c2ccco2)CC1`, the cell number change stood at 11.3%.

Take `COc1ccc(C/C(C)=N/NC(=O)C2COc3ccccc3O2)cc1` (configuration not stated): the cell number change amounted to 40.6%. For the same molecule, the AC50 under setting [1] was 29.1 µM [rising, single point].

For `N=C1C(=O)OCC1c1cc(Cl)ccc1NC(=O)Nc1ccccc1` (configuration not stated), the cell number change was -21.1%. Besides, under setting [2], the AC50 was 9.2 µM [falling, single point].

With `CCOc1ccc2nc(NC(=O)CN3CCN(C)CC3)sc2c1`, the cell number change turned out to be 170%. Further, the AC50 under setting [1] is 29.1 µM [rising, single point].

Regarding `Cc1ccc(/C=N/NC(=O)c2ccccn2)s1`, the cell number change was -0.884%. Also, under setting [2], the AC50 was 29.1 µM [falling, single point].

As to `CC(/C=N/NC(=O)c1ccncc1)=C\c1ccc(C(C)C)cc1`, under setting [2], the AC50 is 4.61 µM [falling, single point].

`Cc1nnc(Nc2ccccc2F)s1`: the AC50 under setting [2] was 18.4 µM [rising, single point].

Consider `COc1ccc(-n2c(SCC(=O)NCC3CCCO3)nc3c(c2=O)SCC3)cc1` (configuration not stated), for which the cell number change worked out at 28%. The AC50 under setting [2] is 32.6 µM [rising, single point].

`COc1ccccc1C(=O)NC(C)c1nc2ccccc2[nH]1` (configuration not stated): the cell number change is 1.66%. For the same molecule, the AC50 under setting [2] is 20.6 µM [rising, single point].

Take `O=C(CNS(=O)(=O)c1c(Cl)cccc1Cl)OCC(=O)c1ccc[nH]1`: the cell number change was 0.66%. The AC50 under setting [1] was 5.8 µM [falling, partial curve]. Besides, the AC50 under setting [2] was 3.66 µM [falling, partial curve].

Take `COc1cc(C(=O)Nn2c(CC(C)C)nc3ccccc3c2=O)cc(OC)c1OC`: the cell number change came to 17.3%. Besides, the AC50 under setting [2] is 0.13 µM [rising, full curve, poor fit].

On to `Cc1nc2ccccn2c1P(=Nc1ccccc1)(N(C)C)N(C)C`, for which the cell number change was -51.2%. Also, under setting [1], the AC50 is 29.1 µM [falling, single point]. In addition, the AC50 under setting [2] is 4.11 µM [falling, full curve].

On to `CCc1nn(CC(=O)Nc2ccc(Br)c(C)c2)c(=N)s1`, for which the cell number change is -37.6%.

On to `O=C(Nc1c(Cl)cccc1Cl)C1CCC1`, for which the cell number change turned out to be 6.64%.

Take `O=C(CSc1nnc(-c2ccncc2)o1)Nc1ccccc1Cl`: the cell number change was 116%. Besides, the AC50 under setting [1] is 29.1 µM [rising, single point].

Take `O=C(OC1CCN(c2ccc([N+](=O)[O-])cc2)CC1)c1ccccc1`: the cell number change came out at 44.7%. For the same molecule, the AC50 under setting [1] was 0.164 µM [rising, full curve, poor fit]. Further, under setting [2], the AC50 was 20.6 µM [rising, single point].

For the molecule `O=C(Cc1nc2ccccc2[nH]1)c1ccc([N+](=O)[O-])cc1`, the cell number change came to 1.26%. The AC50 under setting [1] is 0.461 µM [falling, full curve]. Besides, the AC50 under setting [2] was 0.731 µM [falling, full curve, poor fit].

For `O=C1/C(=C/c2cccnc2)SC(=S)N1CC1CCCO1` (configuration not stated), the cell number change came to 19.8%. In addition, under setting [2], the AC50 was 1.3 µM [rising, full curve].

For `COC(=O)c1ccc2c(c1)NC(=O)C(N1CCCC1)S2` (configuration not stated), the cell number change stood at 23.9%. Moreover, under setting [2], the AC50 is 0.184 µM [falling, full curve, poor fit].

With `COc1ccc(C(=O)NCc2ccc3c(c2)OCO3)c(OC)c1`, the cell number change was -9.09%.

Regarding `CCCc1cc(=O)[nH]c(SCCCCN2C(=O)c3ccccc3C2=O)n1`, the cell number change is 41.1%. Also, under setting [1], the AC50 was 4.61 µM [rising, partial curve, poor fit]. For the same molecule, under setting [2], the AC50 is 0.366 µM [rising, full curve, poor fit].

With `CCC1CCCCN1C(=O)C1CC(c2cc(Cl)c(OC)cc2OC)=NO1` (configuration not stated), the cell number change was -10.3%. Further, the AC50 under setting [2] was 2.06 µM [rising, partial curve].

As for `COc1ccccc1-c1nc2n(n1)C(c1ccccc1Cl)C(C(N)=O)=C(C)N2` (configuration not stated), the cell number change was -20.9%. Further, under setting [2], the AC50 was 0.731 µM [rising, full curve, poor fit].

In the case of `COC(=O)c1c(NC(=O)CSc2ncn[nH]2)sc(C)c1C`, the AC50 under setting [2] was 0.092 µM [rising, full curve, poor fit].

In the case of `Cc1ccc(C)c(NC(=O)CN(C)C(=O)c2ccncc2)c1`, the cell number change is -15.8%. Under setting [2], the AC50 was 11.6 µM [falling, single point].

Take `CS(=O)(=O)c1cccc(C(=O)Oc2ccccc2)c1`: the cell number change is -19.5%.

Turning to `CN(C)c1nc(N)nc(CSc2nnnn2-c2ccc(F)cc2)n1`, the cell number change amounted to 106%. For the same molecule, the AC50 under setting [2] was 0.58 µM [rising, single point].

As for `O=C(c1ccccc1)c1nccn1-c1ccc(Cl)nn1`, the cell number change is 48.4%. Further, under setting [1], the AC50 was 0.517 µM [rising, full curve]. Further, the AC50 under setting [2] was 8.2 µM [rising, partial curve, poor fit].

Turning to `Cc1ccc(-n2nc3c(N4CCC(C(=O)N5CCCCCC5)CC4)nnc(C)c3c2C)cc1`, the cell number change is -81.2%. Besides, the AC50 under setting [1] is 16.4 µM [falling, partial curve]. For the same molecule, the AC50 under setting [2] is 5.17 µM [falling, full curve].
